This test is described as follows: qHTS Assay for Lipid Storage Modulators in Drosophila S3 Cells.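 On cell number change: cells counted by Cell Tracker Red CMTPX staining in the red channel.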 Particulars: BODIPY lipid droplet fluorescence, 18-24 h; for cell number change: measured here: cell count max response, cells fed with added oleic acid. The essentials: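 Laser-scanning cytometry quantifies lipid droplet accumulation (500–530 nm total intensity; droplet/cell object ratio) in oleic acid-fed (400 uM added) Drosophila S3 cells treated with a concentration series. 20 uM Triacsin C defined 100% inhibition.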

The mark [1] stands for this setting: measured here: cell number channel AC50, cells fed with added oleic acid.
Where [2] appears, read: measured here: lipid fluorescence (Fed channel) AC50, cells fed with added oleic acid.

The list shows a part of the results. Shown are side measurements of this screen, not its main read-out; they come without a call. Compounds called inactive in the main read-out are mostly missing here. Potencies come from curve fits of mixed quality, noted in brackets.

Consider `Cc1noc(C)c1C(=O)Nc1ccc(F)c(F)c1`, for which the cell number change came to 53.9%. In addition, the AC50 under setting [1] is 10.3 µM [rising, partial curve]. For `CCCCC(CC)C(=O)Nc1cc(C(=O)NCCC)ccc1N1CCC2(CC1)CC(c1ccccc1)=NO2` (stereo not given), the cell number change was found to be 49.5%. The AC50 under setting [1] is 29.1 µM [rising, single point]. Also, the AC50 under setting [2] was 18.4 µM [falling, single point].

Regarding `Cc1ccccc1N1C(=O)C(Cl)=C(N2CCN(c3ccccc3)CC2)C1=O`, the cell number change came out at 7.95%. Further, the AC50 under setting [2] is 0.92 µM [rising, partial curve]. As to `CC12CC3CC(C)(C1)CC(C(=O)NC1=NCCS1)(C3)C2`, the cell number change is -20.6%.

For `O=C(Cc1c[nH]c2ccccc12)Nc1nnc(C2CC2)s1`, the cell number change was 15.5%. Consider `O=[N+]([O-])c1ccc2nc(-c3cccnc3)[nH]c2c1`, for which the cell number change was -29.1%. Further, under setting [2], the AC50 is 29.1 µM [falling, single point]. For `O=C(COC(=O)C12CC3CC(CC(Br)(C3)C1)C2)N1CCOCC1`, the cell number change is -8.38%. Regarding `O=CN1CCN(c2c([N+](=O)[O-])c(=O)oc3ccccc23)CC1`, the AC50 under setting [2] was 4.11 µM [rising, partial curve, poor fit]. As to `COc1cc(OC)c(C(=O)OCCCOC(=O)c2cc(OC)c(OC)cc2OC)cc1OC`, the cell number change was 2.7%. Further, under setting [2], the AC50 is 29.1 µM [falling, single point]. For `c1ccc(-n2ncc(-c3nn[nH]n3)n2)cc1`, the cell number change turned out to be 6.69%.

Turning to `CC(C)C[C@H](NC(=O)Nc1ccc(S(N)(=O)=O)cc1)C(=O)O`, the cell number change was -34.2%. Under setting [1], the concentration at half-maximal activity (AC50) is 51.7 µM [falling, partial curve, poor fit]. For `Cc1cc(Nc2ccccc2)n(-c2ccc(Br)cc2)n1`, the cell number change is -17.3%.

Turning to `O=C(CN1C(=O)COc2ccc(Cl)cc21)Nc1ccc2c(c1)OCCO2`, the cell number change is -10.6%. `CC(C)NNC(=O)c1ccncc1`: the cell number change stood at 36.5%. In addition, the AC50 under setting [1] is 6.51 µM [rising, partial curve, poor fit]. The AC50 under setting [2] was 5.8 µM [rising, full curve, poor fit]. Turning to `O=C(CSc1ccccn1)Nc1nonc1[N+](=O)[O-]`, the cell number change was found to be 5.9%. In addition, under setting [2], the AC50 was 29.1 µM [rising, single point]. For the compound `O=C1COc2ccc(C(=O)COC(=O)Cc3ccc(F)cc3)cc2N1`, the cell number change is 18.1%.

For the compound `Cc1c(Cl)cccc1NC(=O)Cn1cc(C(F)(F)F)cc(Cl)c1=O`, the cell number change is -4.14%. In addition, under setting [1], the half-maximal activity concentration (AC50) was 6.51 µM [rising, single point]. Turning to `COc1ccccc1-c1cc(C(=O)N/N=C/c2ccc(C)s2)c2ccccc2n1`, the AC50 reads like this: under setting [1], 1.84 µM [rising, partial curve]; under setting [2], 2.59 µM [rising, partial curve]. With `COc1ccc(NC(=O)c2ccc(-c3nn(C)c(=O)c4ccccc34)cc2)cc1`, the cell number change was 14.4%. Also, under setting [2], the AC50 is 0.164 µM [rising, full curve, poor fit]. `CCOC(=O)N1CCN(S(=O)(=O)c2ccc(C(=O)Nc3nnc(CSC)o3)cc2)CC1`: the cell number change worked out at 8.61%. Moreover, under setting [1], the AC50 was 1.64 µM [falling, partial curve]. On to `COC(=O)CN(c1ccc(C(C)C)cc1)S(=O)(=O)c1c(C)[nH]c(=O)[nH]c1=O`, for which the cell number change was -11.1%. For the compound `CC(C)OC(=O)NC(c1ccccc1)C(Cl)(Cl)Cl` (stereo not given), the cell number change was -22.6%. Further, the AC50 under setting [1] is 0.259 µM [falling, single point]. In the case of `CC(C)(C)NC(=O)N1c2ccccc2Sc2ccccc21`, the cell number change was -24.6%. Further, under setting [2], the AC50 was 0.0731 µM [rising, partial curve]. Turning to `CCOc1ncccc1C(=O)OCc1cccc([N+](=O)[O-])c1`, the AC50 under setting [2] is 0.291 µM [falling, full curve, poor fit]. On to `COc1ccccc1NC(=O)c1nn(C)cc1Br`, for which the cell number change stood at 21.9%. Besides, the AC50 under setting [2] is 23.1 µM [rising, single point]. `CC(=O)Nc1cccc(NC(=O)Nc2cccc3ccccc23)c1`: the cell number change amounted to 12.3%. Under setting [2], the AC50 is 0.164 µM [rising, full curve]. On to `CC1Cc2ccccc2N1C(=O)CSc1nc(N)cc(=O)[nH]1` (stereo not given), for which the cell number change was -26%. Moreover, the AC50 under setting [2] was 0.13 µM [falling, full curve, poor fit]. With `S=C1N(c2ccccc2)C(c2cccc3ccccc23)N2CCCN12` (stereo not given), the cell number change came out at 54.8%. Under setting [1], the AC50 is 1.84 µM [rising, full curve]. Further, the AC50 under setting [2] was 2.31 µM [rising, partial curve]. With `COc1cccc(C(=O)OCn2nnc3ccccc3c2=O)c1OC`, the cell number change amounted to 25.6%. For the same compound, the AC50 under setting [1] was 2.06 µM [rising, partial curve]. Moreover, the AC50 under setting [2] is 0.0291 µM [rising, full curve, poor fit]. For the compound `CCCOC(=O)c1ccc(N2C(=O)c3ccccc3C2=O)cc1`, the cell number change stood at 8.04%. Also, the AC50 under setting [2] is 18.4 µM [rising, single point].

Turning to `COc1cccc(NC(=O)Nc2cccs2)c1`, the AC50 under setting [1] is 0.0291 µM [falling, full curve, poor fit] and the AC50 under setting [2] was 0.0411 µM [falling, full curve, poor fit]. For `CC(C)(C)n1nnnc1C(c1ccc(F)cc1)N(Cc1ccc(F)cc1)Cc1ccco1` (stereo not given), the cell number change was -106%. The concentration at half-maximal activity (AC50) under setting [2] is 29.1 µM [falling, single point]. With `Cc1cc(Br)ccc1SCC(=O)OCC(=O)NCc1ccco1`, the cell number change was -47.7%. In addition, the AC50 under setting [1] is 29.1 µM [falling, single point].

Regarding `O=C(Nc1ccc(S(=O)(=O)Nc2cnc3ccccc3n2)cc1)c1ccccc1Br`, the cell number change was -1.74%. On the same count and under the same terms, as for `CCCCn1c(N)c(N(CCOC)C(=O)c2ccc(S(=O)(=O)N3CCC(C)CC3)cc2)c(=O)[nH]c1=O`, the figure is 3.21%. Take `Cc1cccc(Nc2nc(N3CCCC3)nc(N3CCCC3)n2)c1`: the cell number change amounted to 145%. Moreover, under setting [1], the half-maximal activity concentration (AC50) is 13 µM [rising, partial curve]. Also, the half-maximal activity concentration (AC50) under setting [2] is 20.6 µM [rising, partial curve]. Consider `Cc1c(C(=O)O)sc2nc(SCC(=O)Nc3ccc(S(=O)(=O)NCCCC(=O)O)cc3)[nH]c(=O)c12`, for which the cell number change is -5.44%. The AC50 under setting [1] was 0.461 µM [rising, single point]. As for `CCOC(=O)N1CCC(NC(=O)c2oc3c(c2C)-c2[nH]ncc2CC3)CC1`, the cell number change worked out at 77.1%. Also, under setting [1], the concentration at half-maximal activity (AC50) is 6.51 µM [falling, single point]. Under setting [2], the half-maximal activity concentration (AC50) was 6.51 µM [falling, partial curve].

For `CC1CCN(S(=O)(=O)c2nnc(NC(=O)COc3ccccc3F)s2)CC1`, the cell number change came out at 34%.

`CCN(CC)C(=O)C(C)OC(=O)c1ccc(O)cc1` (stereo not given): the cell number change was -11.5%. In addition, the AC50 under setting [2] is 20.6 µM [falling, single point]. As for `O=C(Nc1c(-c2cccs2)nc2ccccn12)c1ccc2ccccc2c1`, the cell number change was 9.44%. Also, under setting [2], the AC50 was 16.4 µM [rising, single point].

The values are drawn from PubChem BioAssay AID2685 (National Center for Advancing Translational Sciences (NCATS), 2010).
